This passage reports binding results from US20220119513A1.

Positions count from the first letter of the chain named. No constants are given. Whether binding was seen depends on the method and setting. Binding can be weak; no strength is given.

One assay has as its target TGFβ2 (R&D Systems). The assay is described as follows: SPR. In general terms: In SPR one partner is held on a chip, and binding of the other changes the refractive index at the surface.
The next assay has as its target TGFβ1 (R&D Systems). Description: SPR.

B1: felHclb_heterochimera-7 (antibody, V domains shown)
VH: EVQLVQSGAEVKKPGASVKVSCKTSGYTFITYWMNWVRQAPGAGLDWMGQIFPASGSTNYNEMFEGRVTLTADTSTSTAYMELSSLRAGDIAVYYCARGDGNYALDAMDYWGQGTLVT
VL: DIVMTQTPLSLPVTPGEPASISCRASESVDSYGNSFMHWYLQKPGQSPRLLIYLASNLESGVPSRFSGSGSGTDFTLRISSVEADDVGVYYCQQNNEDPLTFGAGT
B1: the binding result with TGFβ2 (R&D Systems) and in the assay with TGFβ1 (R&D Systems) was “binds” throughout.

B2: felHclb_heterochimera-10 (antibody, V domains shown)
VH: B1 VH
VL: B1 VL with I2V, L50R, S64D, S81R
On to B2, for which the binding entry in the assay with TGFβ2 (R&D Systems) and with TGFβ1 (R&D Systems) was “binds” each time.

B3: felHclbH618x-K36 (antibody, V domains shown)
VH: QVLLVQSGAEVRKPGASVKIFCKASGYTFITYYMHWLRQAPEQGLEWMGQIFPASGSTNYNEMFEGRLTLTADTSTNTAYMELSSLRSADTAMYYCARGDGNYALDAMDYWGQGALVTVSS
VL: B1 VL
Regarding B3, the binding result with TGFβ2 (R&D Systems) and in the assay with TGFβ1 (R&D Systems) was “no binding” each time.

B4: felHclb_heterochimera-9 (antibody, V domains shown)
VH: B1 VH
VL: AITMTQSPGSLAGSPGQQVTMNCRASESVDSYGNSFMHWYQQKPGQHPKLLIYLASNLESGVPDRFSGSGSGTDFTLTISNLQAEDVASYYCQQNNEDPLTFGAGT
Turning to B4, the binding entry with TGFβ2 (R&D Systems) and with TGFβ1 (R&D Systems) was “binds” each time.

B5: felHclbH1-1x-K36 (antibody, V domains shown)
VH: B3 VH with K13T, T28I, L37V, A40S, E42A, A115T, L116S
VL: B1 VL
For B5, the binding result with TGFβ2 (R&D Systems) and with TGFβ1 (R&D Systems) was “no binding” in each case.

B6: felHclb_heterochimera-14 (antibody, V domains shown)
VH: B3 VH with K13T, T28I, L37V, A40S, E42A, A115T, L116S
VL: DIVLTQTPASLAVSLGQRATISCRASESVDSYGNSFMHWYQQKSGQPPKLLIYLASNLESGVPARFSGSGSRTDFTLTIDPVEADDAATYYCQQNNEDPLTFGAGTK
Consider B6, for which the binding result in the assay with TGFβ2 (R&D Systems) and with TGFβ1 (R&D Systems) was “no binding” each time.

B7: felHclb_heterochimera-16 (antibody, V domains shown)
VH: B3 VH
VL: B6 VL
With B7, the binding result with TGFβ2 (R&D Systems) and with TGFβ1 (R&D Systems) was “no binding” throughout.

B8: felHclb-2 (antibody, V domains shown)
VH: QVLLVQSGAEVRRPGASVKIFCKASGYIFITYYMHWLRQAPAQGFEWMGSIFPASGSTSYAQKFQGRLTLTADTSTDTAYMELSSLRSADTAVYYCARGDGNYALDAMDYWGHGTIVTVSS
VL: EIQMTQSPSSLSASPGDRVTITCRASESVDSYGNSFMHWYQQKPGKVPKLLIYLASNLESGVPSRFSGSGSGTDFTLTISSLEPEDAATYYCQQNNEDPLTFGAGT
B8: the binding result with TGFβ2 (R&D Systems) and with TGFβ1 (R&D Systems) was “binds” each time.

B9: felHclb_heterochimera-13 (antibody, V domains shown)
VH: B8 VH with S50Q, S59N, A61N, Q62E, K63M, Q65E
VL: B6 VL
On to B9, for which the binding result with TGFβ2 (R&D Systems) and with TGFβ1 (R&D Systems) was “no binding” throughout.

B10: felHclb-13 (antibody, V domains shown)
VH: B8 VH with R13T, L37V, A40S, F45L, D77N, V93M, H113Q, I116S
VL: B1 VL
With B10, the binding entry in the assay with TGFβ2 (R&D Systems) and with TGFβ1 (R&D Systems) was “binds” in each case.

B11: felHclb_heterochimera-12 (antibody, V domains shown)
VH: B8 VH with R13T, L37V, A40S, F45L, D77N, V93M, H113Q, I116S
VL: B6 VL
As for B11, the binding entry with TGFβ2 (R&D Systems) and in the assay with TGFβ1 (R&D Systems) was “no binding” throughout.

B12: felHclb-16 (antibody, V domains shown)
VH: B8 VH with R13T, L37V, A40S, F45L, D77N, V93M, H113Q, I116S
VL: B1 VL with I2V, L50R, S64D, S81R
Take B12: the binding entry in the assay with TGFβ2 (R&D Systems) and with TGFβ1 (R&D Systems) was “binds” throughout.

B13: felHclb_heterochimera-8 (antibody, V domains shown)
VH: B1 VH
VL: B8 VL
Take B13: the binding entry with TGFβ2 (R&D Systems) and with TGFβ1 (R&D Systems) was “binds” in each case.

B14: felHclb-14 (antibody, V domains shown)
VH: B8 VH with R13T, L37V, A40S, F45L, D77N, V93M, H113Q, I116S
VL: B8 VL
For B14, the binding result in the assay with TGFβ2 (R&D Systems) and with TGFβ1 (R&D Systems) was “binds” throughout.

B15: felHclbH636x-K36 (antibody, V domains shown)
VH: B8 VH with S50Q, S59N, A61N, Q62E, K63M, Q65E
VL: B1 VL
On to B15, for which the binding entry with TGFβ2 (R&D Systems) and with TGFβ1 (R&D Systems) was “no binding” each time.

B16: felHclbH618s-K36 (antibody, V domains shown)
VH: B3 VH with Q50R, N59S, N61A, E62Q, M63K, E65Q
VL: B1 VL
As for B16, the binding entry with TGFβ2 (R&D Systems) and with TGFβ1 (R&D Systems) was “no binding” each time.

B17: felHclb-15 (antibody, V domains shown)
VH: B8 VH with R13T, L37V, A40S, F45L, D77N, V93M, H113Q, I116S
VL: B4 VL
As for B17, the binding result in the assay with TGFβ2 (R&D Systems) and with TGFβ1 (R&D Systems) was “binds” in each case.

B18: felHclb 1-1xWMN (antibody, V domains shown)
VH: B3 VH with K13T, T28I, Y33W, H35N, L37V, A40S, E42A, A115T, L116S
VL: B8 VL
As for B18, the binding result in the assay with TGFβ2 (R&D Systems) and with TGFβ1 (R&D Systems) was “binds” each time.

B19: felHclb_heterochimera-15 (antibody, V domains shown)
VH: B3 VH with Q50R, N59S, N61A, E62Q, M63K, E65Q
VL: B6 VL
Take B19: the binding result with TGFβ2 (R&D Systems) and in the assay with TGFβ1 (R&D Systems) was “no binding” throughout.
